Among the data in publication PMC7819943, “Rice protein-binding microarrays: a tool to detect cis-acting elements near promoter regions in rice” are binding signal values, retold here.

This is one part of the list.

The assay addresses T1, OsSMF1 (Oryza sativa, UniProt Q6ZLB0 1-436).
T1 sequence: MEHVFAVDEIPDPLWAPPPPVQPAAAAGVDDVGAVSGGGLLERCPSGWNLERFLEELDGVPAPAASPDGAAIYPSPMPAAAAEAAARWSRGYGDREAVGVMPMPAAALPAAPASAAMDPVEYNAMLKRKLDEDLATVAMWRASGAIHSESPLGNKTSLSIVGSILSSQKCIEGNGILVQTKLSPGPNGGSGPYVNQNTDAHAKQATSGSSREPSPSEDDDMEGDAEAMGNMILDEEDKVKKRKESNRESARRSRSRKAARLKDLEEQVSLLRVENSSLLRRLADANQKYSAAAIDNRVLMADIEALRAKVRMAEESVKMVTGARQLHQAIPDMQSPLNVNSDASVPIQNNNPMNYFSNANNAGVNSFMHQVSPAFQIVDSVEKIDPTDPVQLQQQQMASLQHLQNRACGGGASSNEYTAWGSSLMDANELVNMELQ
The assay is described as follows: protein-binding microarray (RPBM); PBS, 2% BSA, 51.3 ng/ul salmon testes DNA, 50 uM zinc acetate, 200 nM TF, 25 C, 1 h; high values mean tight binding. The settings on record: protein: recombinant; tags: N-terminal polyhistidine and DsRed monomer fusion (pET32a); chain copies: 2; label: CyDye5-dUTP incorporated in the synthesized complementary strand; 3' TTTTT single-stranded linker to array surface; dsDNA, one strand shown. Put shortly:
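Transcription factors were made in E. coli BL21-CodonPlus as N-terminal fusions to a polyhistidine tag and DsRed, then purified on Ni–NTA. After primer extension with Cy5-dUTP and blocking with 2% BSA, a custom Agilent array was exposed for 1 h at 25 °C to 200 nM protein in PBS, 2% BSA, salmon testes DNA and 50 µM zinc acetate. Washed arrays were scanned on an Axon 4000B, and the binding signal is per-feature fluorescence intensity in arbitrary units.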
As for “ATCCAGGAGTCCAGCACGAACTGCATGCGTCAACATGCAACGGAGTCACCTAGTGCAG”, the binding signal is 4560 fluorescence intensity (a.u.).

“TGGGAGAGGCTGAGGAAGTGGCAAACCGGCAGCTGTGACGCGGAGTCACCTAGTGCAG”: the binding signal was 3430 fluorescence intensity (a.u.).

“CCGGGTCAACTTGCCACATCAGTGAATCCAGACATCTACACGGAGTCACCTAGTGCAG”: the binding signal is 5980 fluorescence intensity (a.u.).

Turning to “GCCAACTGCCATGTCAGCAACTAACGCGCTCGCTTCCTTCCGGAGTCACCTAGTGCAG”, the binding signal is 13400 fluorescence intensity (a.u.).

In the case of “GACCTCATCAATGCTGCTCGTAATAGTACTACTACTCCTACGGAGTCACCTAGTGCAG”, the binding signal is 4310 fluorescence intensity (a.u.).

Turning to “GCCAGTAAACCAATGGAGGACTGGCCTGTGGTGTACAACTCGGAGTCACCTAGTGCAG”, the binding signal is 3140 fluorescence intensity (a.u.).

Regarding “TGATTAAAGTATTCTTATTTCTCTTTTGAGCAATATCTAACGGAGTCACCTAGTGCAG”, the binding signal is 21900 fluorescence intensity (a.u.).

On to “CTATAGTGTGTGACGACTTTCTGGACGATGGCTTGACGCACGGAGTCACCTAGTGCAG”, for which the binding signal was 3160 fluorescence intensity (a.u.).

For “TATCGAGTCCCTGTAAGTTGTAACACGTGTTTGTTTCTCTCGGAGTCACCTAGTGCAG”, the binding signal is 4470 fluorescence intensity (a.u.).

“ACTCTATGCTGAGTGACCTGGCATTTATTAAGACAATTGCCGGAGTCACCTAGTGCAG”: the binding signal was 7720 fluorescence intensity (a.u.).

“AATCCTCCTCCCTCATCAGTCGTCACGCCCACCACCCCACCGGAGTCACCTAGTGCAG”: the binding signal was 4860 fluorescence intensity (a.u.).

Regarding “CGCTCGCCCGCATCCGCATGACGCGCACGGGAAGCGGCCGCGGAGTCACCTAGTGCAG”, the binding signal is 3970 fluorescence intensity (a.u.).

As to “CCGGTGCGCCCATCTCGTACGGTGCGACGTGCGTGCGGCCCGGAGTCACCTAGTGCAG”, the binding signal is 4120 fluorescence intensity (a.u.).

With “TCGTGTGGTCGGAGGGGACGCGGGGCAGGAGCGGCGCGGGCGGAGTCACCTAGTGCAG”, the binding signal was 3160 fluorescence intensity (a.u.).

As to “CTTTACATTTTGAATAATGACGCAACCTTAAAACACTACTCGGAGTCACCTAGTGCAG”, the binding signal is 6280 fluorescence intensity (a.u.).

Consider “CCGTACGTATCATATCTGATATTTAGGTATCATACTGACGCGGAGTCACCTAGTGCAG”, for which the binding signal is 3680 fluorescence intensity (a.u.).

Take “TCACGTGACTGGATCCCTCTTCTCTCTCGCGCGAGCGTCGCGGAGTCACCTAGTGCAG”: the binding signal was 4530 fluorescence intensity (a.u.).

With “GAGTCTAGGAAATTGTCATGTATGAAAATTTTAAAAGTGGCGGAGTCACCTAGTGCAG”, the binding signal was 27900 fluorescence intensity (a.u.).

Take “GCCTTGGCACGGTGGGTTGGCCTGGCACAGCACGAAAGTCCGGAGTCACCTAGTGCAG”: the binding signal is 3230 fluorescence intensity (a.u.).

Take “AGGCCGGGCCGTAGCGAAATCGAGAGCGTTTTCCATTCGTCGGAGTCACCTAGTGCAG”: the binding signal was 36500 fluorescence intensity (a.u.).

Take “CAACCAATGAGTTGAAGGTTGCAAGCTGACACGTAAAGTTCGGAGTCACCTAGTGCAG”: the binding signal was 4910 fluorescence intensity (a.u.).

As to “CGAGTGGCAAATAGGCGGTATCATCTCGCATTTCACTATTCGGAGTCACCTAGTGCAG”, the binding signal was 7100 fluorescence intensity (a.u.).

For the sequence “TTCCTCTGAACATTGCTATGGCAGTTCAGATTTAAGCCCACGGAGTCACCTAGTGCAG”, the binding signal was 3170 fluorescence intensity (a.u.).

As for “ATATCTATGCACGCGACAACCAAAACATTACAATTCCACGCGGAGTCACCTAGTGCAG”, the binding signal is 3240 fluorescence intensity (a.u.).

In the case of “GTTTGCTAATTAACGCGGGCAAGATCGAACACGGCCATGTCGGAGTCACCTAGTGCAG”, the binding signal was 15300 fluorescence intensity (a.u.).

Turning to “AACTAATGCCAATATTGGCCTATATTGGCACACGTGGGTACGGAGTCACCTAGTGCAG”, the binding signal is 4350 fluorescence intensity (a.u.).

For the sequence “ACCCCGCCTTGGACGCCACGTCCAAGCTAGGCACCCGATGCGGAGTCACCTAGTGCAG”, the binding signal is 5270 fluorescence intensity (a.u.).

For the sequence “TTATGTTTGAATTTAAGTTTTGAGTTTTGTTGCGTGCGCACGGAGTCACCTAGTGCAG”, the binding signal was 28800 fluorescence intensity (a.u.).

With “AATCTCCCTCACGCTGACGTCAGCCCTAGCGTTCTCCTCCCGGAGTCACCTAGTGCAG”, the binding signal was 19700 fluorescence intensity (a.u.).

Take “CACGCCACCACGCTCTCCGTGACAACGAGGCGCCAACCTCCGGAGTCACCTAGTGCAG”: the binding signal was 3640 fluorescence intensity (a.u.).

For the sequence “GGCTGAGAGAGAGACGCACACATGACACACCGGCGGACAACGGAGTCACCTAGTGCAG”, the binding signal is 4250 fluorescence intensity (a.u.).

For “CACCCGATTAAGTGCACGGACATGACGACTTCTACCGCCGCGGAGTCACCTAGTGCAG”, the binding signal was 4550 fluorescence intensity (a.u.).

“GCCAGGTCCAACGCTGCAGATGTGTATAACATGCGGACACCGGAGTCACCTAGTGCAG”: the binding signal is 3340 fluorescence intensity (a.u.).

Regarding “TTTTATCACATCGTTTTAATTTCAACCAAACTTTCAATTTCGGAGTCACCTAGTGCAG”, the binding signal is 32600 fluorescence intensity (a.u.).

As to “CGCCACATAGACGTCACATCAGCTAAAACCACCAAGAGACCGGAGTCACCTAGTGCAG”, the binding signal was 4110 fluorescence intensity (a.u.).

As for “TCTGCAGCAGCAGCTTGTGTGCCCTCACCATCATCATCATCGGAGTCACCTAGTGCAG”, the binding signal is 4210 fluorescence intensity (a.u.).

As to “ATCCAGATTCAGAGTAGGAGCTAAAACCATGGTGAATCTGCGGAGTCACCTAGTGCAG”, the binding signal was 5250 fluorescence intensity (a.u.).

As for “GTGGTTGGTGATGACCGGGGAGCGCGTCAGCGCCTGGTGGCGGAGTCACCTAGTGCAG”, the binding signal was 3940 fluorescence intensity (a.u.).

On to “TCTACTGTTGCATTGCAGTGTTTGTAAGGGTGAATATTTACGGAGTCACCTAGTGCAG”, for which the binding signal was 9140 fluorescence intensity (a.u.).

In the case of “TCCACCATTAGCAGTTTAACCGTCTGATCAGCAGTGGAACCGGAGTCACCTAGTGCAG”, the binding signal is 3420 fluorescence intensity (a.u.).

Turning to “GGGCCTGGACACAATGGTTGGTGAACATGGAGCTCAGCTACGGAGTCACCTAGTGCAG”, the binding signal was 30500 fluorescence intensity (a.u.).

In the case of “CTCACCCTCGACCTGTCATCCTCCGCCACCTTCTTCGACTCGGAGTCACCTAGTGCAG”, the binding signal is 5120 fluorescence intensity (a.u.).
